Results taken from patent US20140329868A1, “METHODS FOR TREATING HYPERTENSION” (TAKEDA PHARMACEUTICALS U.S.A., INC., priority 2005, published 2014).

System: oxonic acid (OA)-induced hyperuricemic model in Sprague-Dawley rats
Experiment: Example 4: micropuncture glomerular hemodynamics and mean arterial pressure under anesthesia in normal and OA-dosed rats
Assay type: in vivo
Conditions: end of eight weeks, mean ± SEM
Procedure: Materials and Methods. To produce hyperuricemia, rats received OA (Sigma, St Louis Mo., USA) 750 mg/kg body weight daily by gastric gavage. To investigate the treatment effect of febuxostat (also referred to herein as “Fx”), the drug was administered in drinking water at 50 mg/L (approximately 5-6 mg/kg/day) four weeks after OA dosing while the respective controls received 5.84 mg/L of NaCl in drinking water (to maintain a salt concentration equivalent to the Febuxostat-containing water). […] Body weight, food and water intakes were measured daily. Systolic blood pressure, obtained in conscious rats by a tail cuff sphygmomanometer, and plasma uric acid were measured in all animals at baseline and at the end of four and eight weeks. […]
Micropuncture Procedure to Assess Glomerular Hemodynamics. […] Mean arterial pressure (hereinafter “MAP”) was monitored using a pressure transducer (Model p23 db; Gould, San Juan, PR) connected to the catheter in the femoral artery and recorded on a polygraph (Grass Instruments, Quincy, Mass., USA). […] Intratubular pressure under free-flow (hereinafter “FF”) and stop-flow (hereinafter “SFP”) conditions and peritubular capillary pressure (hereinafter “Pc”) were measured in other proximal tubules with a servo-null device (Servo Nulling Pressure System; Instrumentation for Physiology and Medicine, San Diego, Calif., USA). […]

Compound: Cc1nc(-c2ccc(OCC(C)C)c(C#N)c2)sc1C(=O)O [febuxostat, 2-[3-cyano-4-(2-methylpropoxy)phenyl]-4-methylthiazole-5-carboxylic acid]
- Hct (Hematocrit) (Normal + FX rats (n = 8)): 0.48 ± 0.01%
- Hct (Hematocrit) (OA + Fx rats (n = 10)): 0.46 ± 0.01%
